# According to the supplement of paper PMC8728848:
# The list shows a part of the results.
# B1: HA-00510 (Pseudomonas aeruginosa), Q02V39_PSEAB (protein)
# chain: GVPIVNIATPNGAGLSNNHFRDYNVGANGLILNNATGKTQGTQLGGIILGNPNLKGQAAQVILNQVTGGNRSTLAGYTEVAGQSARVIVANPHGITCQGCGFINTPRATLTTGKPIMDGQRLERFQVDGGDIVVEGAELNVGNLEQFDLITRSAKLNAKLYAKNLNIVTGRNDVQADSLQATPRAADGSEKPQLAIDSSALGGMYAGAIRLVGTEQGVGVKLAGDMAASGGDIRIDASGKLSLAQASSQGDLKIAAQAVELNGKTYAGGSAEIRSAEELVNRQS
# Assays:
# Test in all cases: glycan array binding signal (z-score within array); higher = stronger binding
# Conditions in all cases: glycan notation: IUPAC condensed, linker removed
# [1] = target: Gal(b1-3)[Fuc(a1-4)]GlcNAc(b1-3)Gal(b1-4)[Fuc(a1-3)]GlcNAc
# How it was run: (§1)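 Glycan array data were curated from 3228 arrays in the Consortium for Functional Glycomics database and kept only where the protein sequence was available. Glycan names were converted to IUPAC-condensed notation, and columns mapping to the same glycan were averaged. The binding signal is a within-array Z-score, averaged across arrays of the same protein sequence at different concentrations or buffers and across linkers. Negative Z-scores can be read as non-binding.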
# [2] = target: Gal(b1-3)[Fuc(a1-4)]GlcNAc(b1-6)GalNAc
# How it was run: as §1
# [3] = target: Gal(b1-3)[GlcNAc(b1-6)]GalNAc
# How it was run: as §1
# [4] = target: Gal(b1-3)[Neu5Ac(a2-6)]GalNAc
# How it was run: as §1
# [5] = target: Gal(b1-3)[Neu5Ac(a2-6)]GlcNAc(b1-4)Gal(b1-4)Glc
# How it was run: as §1
# [6] = target: Gal(b1-3)[Neu5Ac(b2-6)]GalNAc
# How it was run: as §1
# [7] = target: Gal(b1-4)Gal
# How it was run: as §1
# [8] = target: Gal(b1-4)GalNAc(a1-3)[Fuc(a1-2)]Gal(b1-4)GlcNAc
# How it was run: as §1
# [9] = target: Gal(b1-4)GalNAc(b1-3)[Fuc(a1-2)]Gal(b1-4)GlcNAc
# How it was run: as §1
# [10] = target: Gal(b1-4)Glc
# How it was run: as §1
# [11] = target: Gal(b1-4)Glc6S
# How it was run: as §1
# [12] = target: Gal(b1-4)GlcNAc
# How it was run: as §1
# [13] = target: Gal(b1-4)GlcNAc(a1-6)Gal(b1-4)GlcNAc
# How it was run: as §1
# [14] = target: Gal(b1-4)GlcNAc(b1-2)Man
# How it was run: as §1
# [15] = target: Gal(b1-4)GlcNAc(b1-2)Man(a1-3)Man(b1-4)GlcNAc(b1-4)GlcNAc
# How it was run: as §1
# [16] = target: Gal(b1-4)GlcNAc(b1-2)Man(a1-3)[Gal(b1-4)GlcNAc(b1-2)Man(a1-6)]Man(b1-4)GlcNAc(b1-4)GlcNAc
# How it was run: as §1
# [17] = target: Gal(b1-4)GlcNAc(b1-2)Man(a1-3)[Gal(b1-4)GlcNAc(b1-2)Man(a1-6)]Man(b1-4)GlcNAc(b1-4)[Fuc(a1-6)]GlcNAc
# How it was run: as §1
# [18] = target: Gal(b1-4)GlcNAc(b1-2)Man(a1-3)[Gal(b1-4)GlcNAc(b1-2)Man(a1-6)][Gal(b1-4)GlcNAc(b1-4)]Man(b1-4)GlcNAc(b1-4)[Fuc(a1-6)]GlcNAc
# How it was run: as §1
# [19] = target: Gal(b1-4)GlcNAc(b1-2)Man(a1-3)[Gal(b1-4)GlcNAc(b1-2)Man(a1-6)][GlcNAc(b1-4)]Man(b1-4)GlcNAc(b1-4)[Fuc(a1-6)]GlcNAc
# How it was run: as §1
# [20] = target: Gal(b1-4)GlcNAc(b1-2)Man(a1-3)[GlcNAc(b1-2)Man(a1-6)]Man(b1-4)GlcNAc(b1-4)GlcNAc
# How it was run: as §1
# [21] = target: Gal(b1-4)GlcNAc(b1-2)Man(a1-3)[GlcNAc(b1-4)][Gal(b1-4)GlcNAc(b1-2)Man(a1-6)]Man(b1-4)GlcNAc(b1-4)GlcNAc
# How it was run: as §1
# [22] = target: Gal(b1-4)GlcNAc(b1-2)Man(a1-3)[Man(a1-6)]Man(b1-4)GlcNAc(b1-4)GlcNAc
# How it was run: as §1
# [23] = target: Gal(b1-4)GlcNAc(b1-2)Man(a1-6)Man(b1-4)GlcNAc(b1-4)GlcNAc
# How it was run: as §1
# [24] = target: Gal(b1-4)GlcNAc(b1-2)Man(a1-6)[GlcNAc(b1-2)Man(a1-3)]Man(b1-4)GlcNAc(b1-4)GlcNAc
# How it was run: as §1
# [25] = target: Gal(b1-4)GlcNAc(b1-2)Man(a1-6)[Man(a1-3)]Man(b1-4)GlcNAc(b1-4)GlcNAc
# How it was run: as §1
# [26] = target: Gal(b1-4)GlcNAc(b1-2)[Gal(b1-4)GlcNAc(b1-4)]Man(a1-3)[Gal(b1-4)GlcNAc(b1-2)Man(a1-6)]Man(b1-4)GlcNAc(b1-4)GlcNAc
# How it was run: as §1
# [27] = target: Gal(b1-4)GlcNAc(b1-2)[Gal(b1-4)GlcNAc(b1-4)]Man(a1-3)[Gal(b1-4)GlcNAc(b1-2)[Gal(b1-4)GlcNAc(b1-6)]Man(a1-6)]Man(b1-4)GlcNAc(b1-4)GlcNAc
# How it was run: as §1
# [28] = target: Gal(b1-4)GlcNAc(b1-2)[Gal(b1-4)GlcNAc(b1-4)]Man(a1-3)[GlcNAc(b1-4)][Gal(b1-4)GlcNAc(b1-2)Man(a1-6)]Man(b1-4)GlcNAc(b1-4)GlcNAc
# How it was run: as §1
# [29] = target: Gal(b1-4)GlcNAc(b1-2)[Gal(b1-4)GlcNAc(b1-4)]Man(a1-3)[GlcNAc(b1-4)][Gal(b1-4)GlcNAc(b1-2)[Gal(b1-4)GlcNAc(b1-6)]Man(a1-6)]Man(b1-4)GlcNAc(b1-4)GlcNAc
# How it was run: as §1
# [30] = target: Gal(b1-4)GlcNAc(b1-2)[Gal(b1-4)GlcNAc(b1-6)]Man(a1-6)[Gal(b1-4)GlcNAc(b1-2)Man(a1-3)]Man(b1-4)GlcNAc(b1-4)GlcNAc
# How it was run: as §1
# [31] = target: Gal(b1-4)GlcNAc(b1-2)[Gal(b1-4)GlcNAc(b1-6)]Man(a1-6)[Gal(b1-4)GlcNAc(b1-2)Man(a1-3)]Man(b1-4)GlcNAc(b1-4)[Fuc(a1-6)]GlcNAc
# How it was run: as §1
# [32] = target: Gal(b1-4)GlcNAc(b1-2)[Gal(b1-4)GlcNAc(b1-6)]Man(a1-6)[GlcNAc(b1-4)][Gal(b1-4)GlcNAc(b1-2)Man(a1-3)]Man(b1-4)GlcNAc(b1-4)GlcNAc
# How it was run: as §1
# [33] = target: Gal(b1-4)GlcNAc(b1-2)[Gal(b1-4)GlcNAc(b1-6)]Man(a1-6)[GlcNAc(b1-4)][Gal(b1-4)GlcNAc(b1-2)[Gal(b1-4)GlcNAc(b1-4)]Man(a1-3)]Man(b1-4)GlcNAc(b1-4)[Fuc(a1-6)]GlcNAc
# How it was run: as §1
# [34] = target: Gal(b1-4)GlcNAc(b1-3)Gal(b1-3)GalNAc
# How it was run: as §1
# [35] = target: Gal(b1-4)GlcNAc(b1-3)Gal(b1-3)GlcNAc
# How it was run: as §1
# [36] = target: Gal(b1-4)GlcNAc(b1-3)Gal(b1-4)Glc
# How it was run: as §1
# [37] = target: Gal(b1-4)GlcNAc(b1-3)Gal(b1-4)GlcNAc
# How it was run: as §1
# [38] = target: Gal(b1-4)GlcNAc(b1-3)Gal(b1-4)GlcNAc(b1-2)Man(a1-3)[Gal(b1-4)GlcNAc(b1-3)Gal(b1-4)GlcNAc(b1-2)Man(a1-6)]Man(b1-4)GlcNAc(b1-4)GlcNAc
# How it was run: as §1
binder,measurement,setting,value
B1,glycan array binding signal (z-score),[1],-0.958
same,glycan array binding signal (z-score),[2],0.242
same,glycan array binding signal (z-score),[3],-0.642
same,glycan array binding signal (z-score),[4],-0.256
same,glycan array binding signal (z-score),[5],-0.104
same,glycan array binding signal (z-score),[6],0.022
same,glycan array binding signal (z-score),[7],-0.97
same,glycan array binding signal (z-score),[8],0.199
same,glycan array binding signal (z-score),[9],-1.09
same,glycan array binding signal (z-score),[10],-0.288
same,glycan array binding signal (z-score),[11],0.676
same,glycan array binding signal (z-score),[12],-0.221
same,glycan array binding signal (z-score),[13],0.168
same,glycan array binding signal (z-score),[14],-0.298
same,glycan array binding signal (z-score),[15],-0.221
same,glycan array binding signal (z-score),[16],-0.916
same,glycan array binding signal (z-score),[17],0.296
same,glycan array binding signal (z-score),[18],-0.645
same,glycan array binding signal (z-score),[19],-0.311
same,glycan array binding signal (z-score),[20],-0.147
same,glycan array binding signal (z-score),[21],-0.458
same,glycan array binding signal (z-score),[22],0.125
same,glycan array binding signal (z-score),[23],0.479
same,glycan array binding signal (z-score),[24],0.713
same,glycan array binding signal (z-score),[25],-0.04
same,glycan array binding signal (z-score),[26],0.004
same,glycan array binding signal (z-score),[27],-0.079
same,glycan array binding signal (z-score),[28],-0.568
same,glycan array binding signal (z-score),[29],0.347
same,glycan array binding signal (z-score),[30],-0.521
same,glycan array binding signal (z-score),[31],-0.013
same,glycan array binding signal (z-score),[32],-0.798
same,glycan array binding signal (z-score),[33],-0.09
same,glycan array binding signal (z-score),[34],-0.452
same,glycan array binding signal (z-score),[35],0.515
same,glycan array binding signal (z-score),[36],0.719
same,glycan array binding signal (z-score),[37],-0.63
same,glycan array binding signal (z-score),[38],6.41

# Given with tabs: part of the list above.
binder	measurement	setting	value
B1	glycan array binding signal (z-score)	[33]	-0.09
same	glycan array binding signal (z-score)	[34]	-0.452
